Source: publication PMC9028075
These are yes or no findings as the source states them, for the method shown. In cells and extracts the contact can be indirect. Some binding calls cover weakened binding; strength is not graded here.

Amino acid sequences for entries named in this document (tags omitted). Residues count along the entry.
UniProt P02768, residues 25-609: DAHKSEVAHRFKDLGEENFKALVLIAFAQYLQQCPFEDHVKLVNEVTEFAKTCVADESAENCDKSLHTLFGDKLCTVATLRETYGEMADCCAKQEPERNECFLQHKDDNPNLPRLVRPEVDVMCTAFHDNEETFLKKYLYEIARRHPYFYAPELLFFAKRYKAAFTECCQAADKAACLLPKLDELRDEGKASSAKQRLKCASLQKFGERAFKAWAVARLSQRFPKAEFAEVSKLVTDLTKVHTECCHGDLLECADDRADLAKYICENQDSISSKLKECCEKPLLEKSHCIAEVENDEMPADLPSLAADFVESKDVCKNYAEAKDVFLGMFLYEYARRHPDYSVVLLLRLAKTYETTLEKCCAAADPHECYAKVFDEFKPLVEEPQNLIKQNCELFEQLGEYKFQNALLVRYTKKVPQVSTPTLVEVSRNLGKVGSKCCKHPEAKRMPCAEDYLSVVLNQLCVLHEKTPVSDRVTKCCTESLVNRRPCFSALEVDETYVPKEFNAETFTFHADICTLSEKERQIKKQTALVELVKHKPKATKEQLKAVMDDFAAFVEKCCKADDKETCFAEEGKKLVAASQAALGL
UniProt P02649, residues 19-317: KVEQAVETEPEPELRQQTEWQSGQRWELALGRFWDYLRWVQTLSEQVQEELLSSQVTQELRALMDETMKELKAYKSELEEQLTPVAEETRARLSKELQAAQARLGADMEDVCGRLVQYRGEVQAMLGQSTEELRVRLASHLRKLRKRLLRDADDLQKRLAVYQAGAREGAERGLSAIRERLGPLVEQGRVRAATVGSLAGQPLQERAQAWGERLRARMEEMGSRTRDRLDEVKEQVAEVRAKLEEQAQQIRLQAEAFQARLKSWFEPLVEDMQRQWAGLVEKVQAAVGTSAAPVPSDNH
UniProt P02787, residues 20-698: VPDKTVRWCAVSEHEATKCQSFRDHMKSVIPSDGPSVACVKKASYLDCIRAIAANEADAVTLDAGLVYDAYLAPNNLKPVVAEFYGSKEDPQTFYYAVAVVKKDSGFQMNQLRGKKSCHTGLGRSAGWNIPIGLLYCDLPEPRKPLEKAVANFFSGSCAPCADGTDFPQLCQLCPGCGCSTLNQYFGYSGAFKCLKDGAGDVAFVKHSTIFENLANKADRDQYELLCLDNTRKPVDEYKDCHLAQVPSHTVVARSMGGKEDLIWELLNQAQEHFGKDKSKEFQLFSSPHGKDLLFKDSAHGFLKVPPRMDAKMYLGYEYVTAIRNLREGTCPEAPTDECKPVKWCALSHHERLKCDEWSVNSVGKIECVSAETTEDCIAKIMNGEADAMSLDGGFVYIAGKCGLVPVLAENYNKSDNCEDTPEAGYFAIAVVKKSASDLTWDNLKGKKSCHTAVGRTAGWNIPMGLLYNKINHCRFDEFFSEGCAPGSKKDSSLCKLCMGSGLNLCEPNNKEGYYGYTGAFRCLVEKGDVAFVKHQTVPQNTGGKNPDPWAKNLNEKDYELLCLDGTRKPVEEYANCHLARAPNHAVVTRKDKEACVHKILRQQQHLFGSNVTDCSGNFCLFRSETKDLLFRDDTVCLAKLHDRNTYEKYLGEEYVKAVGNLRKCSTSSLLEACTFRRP

These substances were tested against T1, GBVA10-9scr, scrambled negative control peptide for GBVA10-9 (assay: pull-down; biotinylated peptides (2 ug) on streptavidin agarose resin (10 uL), 30 min at 4 °C with 10% human serum (25 uL) and PBS (200 uL); beads spun down, washed once with cold PBS; bound proteins detected by immunoblot; only the target purified).
T1 sequence (peptide, biotin on the C-terminal lysine, K(Biotin), as printed in Table 1): LTCLKGRLVRWRLRTYFLK

binding, binds:
albumin (from UniProt P02768 25-609)
apolipoprotein E (from UniProt P02649 19-317)
transferrin (from UniProt P02787 20-698)
